Laboratory results as given in publication PMC6036117, “Structural Insight Into Conformational Changes Induced by ATP Binding in a Type III Secretion-Associated ATPase From Shigella flexneri” (Frontiers in Microbiology, 2018).
Results are given in words; binding and its absence hold for the method and conditions named.

Tests used:
[1] = target: Spa47Δ1-83 (surface presentation antigens 47, residues 84-430) (Shigella flexneri) (UniProt P0A1C1); test: crystal structure; unliganded Spa47Δ1-83 crystal, two monomers in the asymmetric unit; interfaces analysed with PDBePISA; both purified
[2] = target: Spa47Δ1-83 (surface presentation antigens 47, residues 84-430) (Shigella flexneri) (UniProt P0A1C1); test: SEC; Superdex 75 10/300GL, 20 mM Tris-HCl pH 8.0, 100 mM NaCl, calibrated with molecular weight standards, flow 0.15 ml/min; both purified

“Spa47Δ1-83 (surface presentation antigens 47, residues 84-430) (from UniProt P0A1C1 84-430) (domain or fragment)” was tested, and the binding [1] was “no binding” and the binding [2] was “no binding”.
